# Percent effect of library compounds

Amino acid sequences for entries named in this document (tags omitted).
UniProt P9WFT3, whole entry: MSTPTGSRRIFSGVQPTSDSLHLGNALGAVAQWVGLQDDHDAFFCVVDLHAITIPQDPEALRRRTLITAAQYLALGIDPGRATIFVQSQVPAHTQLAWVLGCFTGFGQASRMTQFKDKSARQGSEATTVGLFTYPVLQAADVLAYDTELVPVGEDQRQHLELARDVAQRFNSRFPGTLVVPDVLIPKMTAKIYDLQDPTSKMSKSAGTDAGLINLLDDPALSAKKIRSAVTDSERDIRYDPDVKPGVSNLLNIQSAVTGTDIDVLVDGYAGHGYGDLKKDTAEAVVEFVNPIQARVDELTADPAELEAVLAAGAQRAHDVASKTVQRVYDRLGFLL
UniProt P9WPC5, whole entry: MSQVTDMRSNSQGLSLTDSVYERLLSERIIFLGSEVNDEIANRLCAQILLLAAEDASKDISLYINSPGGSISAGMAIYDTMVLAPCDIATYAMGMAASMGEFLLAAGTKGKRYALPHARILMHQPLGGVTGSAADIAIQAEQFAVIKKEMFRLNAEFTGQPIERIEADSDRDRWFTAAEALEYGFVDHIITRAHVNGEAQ
UniProt P9WPC3, whole entry partner: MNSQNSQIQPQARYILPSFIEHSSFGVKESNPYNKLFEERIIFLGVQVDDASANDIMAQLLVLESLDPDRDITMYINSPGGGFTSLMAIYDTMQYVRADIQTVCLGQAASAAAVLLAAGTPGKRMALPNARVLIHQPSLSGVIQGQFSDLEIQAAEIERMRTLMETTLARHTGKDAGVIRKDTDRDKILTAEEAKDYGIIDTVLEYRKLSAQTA
UniProt P9WNZ1, whole entry: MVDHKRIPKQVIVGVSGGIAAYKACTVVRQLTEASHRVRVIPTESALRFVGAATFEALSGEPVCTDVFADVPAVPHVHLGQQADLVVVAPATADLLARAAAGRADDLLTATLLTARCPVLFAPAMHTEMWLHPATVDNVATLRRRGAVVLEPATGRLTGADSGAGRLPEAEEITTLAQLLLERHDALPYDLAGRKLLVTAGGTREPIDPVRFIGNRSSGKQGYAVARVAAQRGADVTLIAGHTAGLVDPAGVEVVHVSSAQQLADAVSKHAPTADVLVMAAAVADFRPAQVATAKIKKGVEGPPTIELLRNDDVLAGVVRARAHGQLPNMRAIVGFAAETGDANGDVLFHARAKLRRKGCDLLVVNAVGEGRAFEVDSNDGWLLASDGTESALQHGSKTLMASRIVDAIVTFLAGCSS
UniProt I6X8D2, whole entry: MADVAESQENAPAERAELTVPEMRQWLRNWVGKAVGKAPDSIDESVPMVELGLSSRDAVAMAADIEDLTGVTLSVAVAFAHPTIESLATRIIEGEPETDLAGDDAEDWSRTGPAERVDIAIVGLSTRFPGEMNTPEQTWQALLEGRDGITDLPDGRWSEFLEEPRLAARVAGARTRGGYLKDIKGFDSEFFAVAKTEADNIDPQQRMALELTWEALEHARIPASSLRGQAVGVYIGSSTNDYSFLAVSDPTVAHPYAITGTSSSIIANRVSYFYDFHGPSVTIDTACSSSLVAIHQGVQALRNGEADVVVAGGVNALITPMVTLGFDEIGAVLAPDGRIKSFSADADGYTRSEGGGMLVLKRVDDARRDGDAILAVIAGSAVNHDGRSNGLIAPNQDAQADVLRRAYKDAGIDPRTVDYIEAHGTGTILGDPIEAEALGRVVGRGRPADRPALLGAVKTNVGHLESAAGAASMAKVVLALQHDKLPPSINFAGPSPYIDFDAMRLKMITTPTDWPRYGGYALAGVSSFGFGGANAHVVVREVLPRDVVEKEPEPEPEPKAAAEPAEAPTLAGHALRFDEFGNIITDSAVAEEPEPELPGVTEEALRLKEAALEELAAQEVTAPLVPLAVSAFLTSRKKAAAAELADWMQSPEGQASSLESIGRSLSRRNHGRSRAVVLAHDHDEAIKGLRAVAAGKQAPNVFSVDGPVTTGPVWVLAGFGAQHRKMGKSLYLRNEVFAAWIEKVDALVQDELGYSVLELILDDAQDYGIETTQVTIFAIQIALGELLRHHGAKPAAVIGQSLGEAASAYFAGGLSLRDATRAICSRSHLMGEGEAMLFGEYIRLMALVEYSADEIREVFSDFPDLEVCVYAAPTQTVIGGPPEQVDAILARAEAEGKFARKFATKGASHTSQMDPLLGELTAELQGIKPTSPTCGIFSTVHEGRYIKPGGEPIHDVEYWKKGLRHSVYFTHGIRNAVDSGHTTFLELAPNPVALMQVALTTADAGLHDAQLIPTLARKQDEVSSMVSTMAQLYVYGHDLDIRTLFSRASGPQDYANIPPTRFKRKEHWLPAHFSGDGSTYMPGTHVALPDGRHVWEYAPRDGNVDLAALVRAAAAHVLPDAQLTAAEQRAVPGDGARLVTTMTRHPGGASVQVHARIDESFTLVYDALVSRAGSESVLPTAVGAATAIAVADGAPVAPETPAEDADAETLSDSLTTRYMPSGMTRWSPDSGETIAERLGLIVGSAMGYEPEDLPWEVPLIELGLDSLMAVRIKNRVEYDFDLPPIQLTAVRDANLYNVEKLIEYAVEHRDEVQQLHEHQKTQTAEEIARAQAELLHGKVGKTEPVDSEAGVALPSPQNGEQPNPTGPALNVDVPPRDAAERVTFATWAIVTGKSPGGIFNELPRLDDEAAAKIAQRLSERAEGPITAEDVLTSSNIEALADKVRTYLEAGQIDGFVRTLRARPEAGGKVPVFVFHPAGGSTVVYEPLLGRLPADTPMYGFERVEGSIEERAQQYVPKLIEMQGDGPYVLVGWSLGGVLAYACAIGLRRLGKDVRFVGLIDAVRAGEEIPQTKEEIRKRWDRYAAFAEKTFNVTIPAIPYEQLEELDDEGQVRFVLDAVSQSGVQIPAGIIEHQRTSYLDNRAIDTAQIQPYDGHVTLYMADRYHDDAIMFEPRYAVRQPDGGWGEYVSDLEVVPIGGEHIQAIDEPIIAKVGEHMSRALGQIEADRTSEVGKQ

MtTrpRS: 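Enzyme assay of tryptophanyl-tRNA synthetase; the read-out is not stated. Target: Tryptophan-tRNA ligase, Mycobacterium tuberculosis (UniProt P9WFT3). Concentration: 10 µM. Direction is not recorded; retested compounds ran higher, which suggests that high means inhibition. Size under these conditions: about 65,000 compounds, about 64 of them at 50% or above in at least one test.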
Toxoplasma: 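Assay of Toxoplasma gondii numbers, read through their beta-galactosidase reporter with a colour substrate. Compounds at 10 µM. Higher reads as fewer parasites (inferred from which compounds were picked for retests). Size under these conditions: about 67,000 compounds, about 260 of them at 50% or above in at least one test.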
ClpP1P2: 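ClpP1P2, Mycobacterium tuberculosis (UniProt P9WPC5 and UniProt P9WPC3). Protease assay of ClpP1P2, read by the AMC dye that it sets free. Compounds at 50 µM. Higher reads as stronger inhibition, judged from the few compounds that gave an IC50. Most other retested compounds had strongly negative values. About 69,000 compounds were tested under these conditions; 0.015% (about 10) showed 50% or more at least once.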
CoaBC: 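Enzyme assay of CoaBC with a phosphate dye (Biomol Green) read at 650 nm. Target: Coenzyme A biosynthesis protein CoaBC, Mycobacterium tuberculosis (UniProt P9WNZ1). Tested at 30 µM. Direction is inferred from only a few compounds that gave an IC50; most scored high, so higher reads as stronger inhibition. Most strong results did not repeat in a second test. About 67,000 compounds were tested under these conditions; 0.06% (about 40) showed 50% or more at least once.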
Pks13 thioesterase: 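Polyketide synthase Pks13, Mycobacterium tuberculosis (UniProt I6X8D2). Enzyme assay of the thioesterase domain of polyketide synthase 13; the read-out is not stated. Concentration: 30 µM. The record gives no direction; the compounds picked for IC50 retests had high values, so higher reads as stronger inhibition. Of about 67,000 compounds tested this way, about 300 (0.46%) reached 50% or more in at least one test.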

Each number is a percent effect as filed.
How 0% and 100% were set is not recorded. Most values in the screen are low, and negative values occur.
Compounds were drawn at random from those tested, without regard to their results.

With COCC(=O)N1CCC2(CC1)CCN(Cc1ccccn1)C2=O the screen gave MtTrpRS: -2.589%; ClpP1P2: -1.7%; CoaBC: -1.158%; Pks13 thioesterase: -7.283%. With CSCC(C)(O)CNS(=O)(=O)c1cccc(C)c1 (centres undefined) the screen gave MtTrpRS: 5.63%; Toxoplasma: -16.06%; ClpP1P2: 3.446%; CoaBC: 11.73%; Pks13 thioesterase: -3.405%. For Cc1[nH]ccc1C(=O)Nc1cccc(CN2CCC(O)CC2)c1 the result was MtTrpRS: -1.377%; Toxoplasma: -1.257%; ClpP1P2: -2.192%; CoaBC: 10.12%; Pks13 thioesterase: -24.47%. [H][C@@]12CN(CCOC)C[C@]1([H])[C@H](OC)CCN2C(=O)CCc1ccccc1 gave Toxoplasma: -0.4025%. O=C(O)C(F)(F)F.O=C(O)C(F)(F)F.c1cncc(COCc2nnc3n2CCN(Cc2cccs2)C3)c1 gave Toxoplasma: -1.521%. For COc1cc(C(C)NCc2ncccc2C)ccc1SC(F)F (centres undefined) the result was MtTrpRS: -4.62%; Toxoplasma: 4.952%; ClpP1P2: 16.64%; CoaBC: 1.467%; Pks13 thioesterase: -16.44%. CCN1Cc2ccccc2N(C(=O)C2CCC2)CCC1=O gave Toxoplasma: -3.257%; ClpP1P2: 14.22%; CoaBC: 0.4843%; Pks13 thioesterase: -9.349%.

Result for CCn1ncnc1CN1CCC(CNC(=O)c2ccccc2C#N)C1 (centres undefined) was MtTrpRS: -0.000007%; Toxoplasma: -35.8%; ClpP1P2: -17.66%; CoaBC: 2.046%; Pks13 thioesterase: -0.644%. COC(=O)c1cc(C)nc(N2CCN(Cc3ccn(C(C)C)c3)CC2)n1 gave MtTrpRS: -0.3079%; Toxoplasma: -15.54%; ClpP1P2: -3.577%; CoaBC: -0.2358%; Pks13 thioesterase: -2.478%. Cc1oncc1C(=O)N1CCC2(CCN(Cc3cccnc3)C2=O)C1.O=C(O)C(F)(F)F (centres undefined) gave Toxoplasma: 6.182%. For O=C(c1cn(Cc2ccccc2)c2ncccc12)N1CCCCC1 the result was Toxoplasma: -31.27%; ClpP1P2: -25.63%; CoaBC: 0.7282%; Pks13 thioesterase: 6.946%. With CC(C)C1CCC(N2CCN(CCS(C)(=O)=O)CC2)CC1 (centres undefined) the screen gave MtTrpRS: -6.295%; Toxoplasma: -1.53%; ClpP1P2: -6.253%; CoaBC: 1.786%; Pks13 thioesterase: -7.585%. CCC(CNC(=O)N1CCOCC2(CCOCC2)C1)c1ccccc1 (centres undefined) gave MtTrpRS: 1.012%; Toxoplasma: 1.181%; ClpP1P2: -5.839%; CoaBC: 4.43%; Pks13 thioesterase: -24.42%. CC(C)Oc1ccc(CNC(=O)NCC(C)(C)C(N)=O)cc1F gave MtTrpRS: 2.032%; Toxoplasma: -1.865%; ClpP1P2: -17.49%; CoaBC: 0.3736%; Pks13 thioesterase: -14.42%.

CC1CCCN1Cc1ccccc1-c1nc(C(C)(C)C)cc(=O)[nH]1 (centres undefined) read MtTrpRS: 0.4167%; Toxoplasma: 6.991%; ClpP1P2: 29.6%; CoaBC: -1.459%; Pks13 thioesterase: -17.26%. With CCCn1cc(-c2cc(-c3ccoc3)c(C#N)c(N)n2)c(C)n1 the screen gave MtTrpRS: 4.026%; Toxoplasma: -27.69%; ClpP1P2: -14.46%; CoaBC: 11.04%; Pks13 thioesterase: -16.7%. Cc1nc(C2CCCN(C(=O)CCCOc3cccc(F)c3)C2)no1 (centres undefined) read MtTrpRS: -6.278%; Toxoplasma: 1.057%; ClpP1P2: 4.487%; CoaBC: 9.504%; Pks13 thioesterase: -20.64%. O=C(NCc1nc[nH]n1)c1cc(COc2cccc(C(F)(F)F)c2)[nH]n1 gave MtTrpRS: -0.08223%; Toxoplasma: 11.53%; ClpP1P2: 7.018%; CoaBC: 8.957%; Pks13 thioesterase: -7.375%. COCCCN1CC2(CCCN(c3ncnc4[nH]cnc34)C2)CCC1=O (centres undefined) read MtTrpRS: -3.704%; Toxoplasma: 0.05294%; ClpP1P2: -15.86%; CoaBC: 2.451%; Pks13 thioesterase: -12.91%. CC1(C)COCCN1C(=O)Cc1csc(Cc2ccccn2)n1 gave MtTrpRS: 1.763%; Toxoplasma: 1.337%; ClpP1P2: 0.7834%; CoaBC: 6.483%; Pks13 thioesterase: -3.269%. CC(NC(=O)Cn1ccnc1)c1ccc(OCC2CC2)c(F)c1 (centres undefined) gave MtTrpRS: 1.649%; Toxoplasma: 3.591%; ClpP1P2: -9.427%; CoaBC: 1.895%; Pks13 thioesterase: -10.67%.

CC(C)CCC(=O)N1CCN(C(C)c2nnc(CC(C)C)o2)CC1 (centres undefined) gave MtTrpRS: 12.49%; Toxoplasma: 2.999%; ClpP1P2: 5.259%; CoaBC: 0.4464%; Pks13 thioesterase: 14.86%.

Source: ChEMBL document CHEMBL3988442, “University of Dundee, Small-Polar-MMV Screening Library” (2021).